Experimental data as given in publication PMC5430550 (Scientific Reports, 2017).
Residue numbers refer to the chain shown, from its start. Numbers in names are those of the source. No constants are given. Whether binding was seen depends on the method and setting. Some binding calls cover weakened binding; strength is not graded here. Tags and fused reporters may be left off the sequences shown. Each block holds one binder with its values, some of them ahead of it.

How the values were obtained:
[1] = biological target: RlmH H129A, His6-tagged (E. coli) (UniProt P0A8I8); assay: SEC; conventional size exclusion chromatography, elution profiles compared with the wild type; data not shown; both purified
[2] = biological target: ribosomal large-subunit methyltransferase H (RlmH), wild type, His6-tagged (E. coli) (UniProt P0A8I8); assay: as above
[3] = biological target: ribosomal large-subunit methyltransferase H (RlmH), wild type, His6-tagged (E. coli) (UniProt P0A8I8); assay: crystal structure; RlmH crystallised with 2 mM SAM (2.3 Å) or sinefungin (2.1 Å); space group P21, 4 molecules (2 dimers) in the asymmetric unit; both purified
[4] = biological target: RlmH R142A, His6-tagged (E. coli) (UniProt P0A8I8); assay: SEC; conventional size exclusion chromatography, elution profiles compared with the wild type; data not shown; both purified

binding [1]: binds
B1: RlmH H129A, His6-tagged (enzyme, UniProt P0A8I8 2-155)
chain: KLQLVAVGTKMPDWVQTGFTEYLRRFPKDMPFELIEIPAGKRGKNADIKRILDKEGEQMLAAAGKNRIVTLDIPGKPWDTPQLAAELERWKLDGRDVSLLIGGPEGLSPACKAAAEQSWSLSALTLPAPLVRVLVAESLYRAWSITTNHPYHRE

binding [2]: binds
binding [3]: binds
B2: ribosomal large-subunit methyltransferase H (RlmH), wild type, His6-tagged (enzyme, E. coli, UniProt P0A8I8 2-155, looked up)
chain: B1 chain with A128H
notes: RlmH (YbeA) of E. coli, 155 amino acids; rlmH gene from ASKA clone JW0631 in pET24b; no cleavage of the tag is described; Limits 2-155 follow from 'first methionine is replaced' and '155 amino acids'; also called YbeA; WT; source: E. coli BLR(DE3), purified (nickel IMAC twice, SEC on Superdex75); not shown: His6, N-terminal, kept

binding [4]: binds
B3: RlmH R142A, His6-tagged (enzyme, UniProt P0A8I8 2-155)
chain: B1 chain with A128H, R141A
